Measurements published in US12433934B2, “Methods and compositions for preventing and treating atherosclerosis and related diseases” (Shanghai Puyou Biomedical Co., Ltd., priority 2018, dated 2025).
Entries after “also recorded” stand apart in the source; their conditions may differ.

Key:
ApoE−/− mice [1] = experiment: Atherosclerotic plaques of the aorta (en face oil red O staining) in high-fat diet ApoE−/− mice; format: in vivo; conditions: ATV 40 mg/kg orally once a day, 13 weeks; **P<0.01
Method: FIGS. 15-16. The sDSS1 protein inhibits the formation of atherosclerotic plaques in ApoE−/− mice. 16-week-old ApoE−/− mice were continuously injected with sDSS1 at 3 mpk or ATV at 40 mpk for 13 consecutive weeks. At the end of the injection, the aorta was dissected for oil red O staining, and the area of plaques was calculated.
Experimental animals: ApoE−/− mice, 8-week-old, male, were purchased from Nanjing Biomedical Research Institute of Nanjing University. The experimental animals were housed in an animal room for one week before the experiment.
Materials: sDSS1 protein, Atorvastatin (ATV).
Experimental method: ApoE−/− mice were fed with high-fat diet containing 0.25% cholesterol starting from the age of 9 weeks. From the 10th week of high-fat diet feeding, the mice were randomly divided into three groups according to the total cholesterol level, with 10 mice in each group. 200 μl of normal saline was intraperitoneally injected in the model group once a day, 40 mg/kg of ATV was orally given in positive drug group once a day, and 3 mg/kg of sDSS1 protein was intraperitoneally injected in sDSS1 group once a day. At the 22nd week of high-fat diet feeding, that is, the 13th week of administration, the animals were executed and dissected, and the whole aorta was separated. The separated aorta was stained with en face oil red O to evaluate the formation of atherosclerotic plaques.

ApoE−/− mice [2] = experiment: Plasma oxLDL and LDL levels (ELISA) in ApoE−/− mice after 7 days of administration; format: in vivo
Method: ApoE−/− mice were divided into two groups, the control group and the sDSS1 protein administration group. The control group was given 200 μl of normal saline once a day by intraperitoneal injection, and the administration group was administered the sDSS1 protein once a day according to 10 mg/kg body weight (10 mpk) or 30 mg/kg body weight (30 mpk) by intraperitoneal injection, and atorvastatin (ATV) as a positive control drug was administered per day according to 40 mg/kg body weight (40 mpk) by intraperitoneal injection for 7 consecutive days. At the end of the administration, the plasma levels of oxLDL and LDL in mice were detected.
Experimental animal: ApoE−/− mice, 8-10 weeks old, male, were purchased from Nanjing Biomedical Research Institute of Nanjing University. The animals were housed in an animal room for one week before the experiment.
Experimental materials: sDSS1 protein, oxLDL ELISA kit (Wuhan Elabscience Biotechnology Co., Ltd., Article No.: E-EL-M0066c), LDL ELISA kit (Wuhan Elabscience Biotechnology Co., Ltd., product No.: E-EL-M1363c)
Experimental method: the ApoE−/− mice were randomly divided into two groups, a control group and a sDSS1 protein group. […] The plasma oxLDL level was measured by using the oxLDL ELISA kit, and the plasma LDL level was measured by the LDL ELISA kit. […]

CC(C)c1c(C(=O)Nc2ccccc2)c(-c2ccccc2)c(-c2ccc(F)cc2)n1CC[C@@H](O)C[C@@H](O)CC(=O)O [ATV, Atorvastatin, reference compound]
Plaque area ratio (oil red O stained area / total aortic area) vs model group (ApoE−/− mice [1]): significantly smaller
Plasma oxLDL level, efficacy of the positive control compared with sDSS1 (ApoE−/− mice [2]; ATV 40 mg/kg (40 mpk) per day intraperitoneal): similar; also recorded: same efficacy
Plasma oxLDL/LDL ratio, efficacy of the positive control compared with sDSS1 (ApoE−/− mice [2]; ATV 40 mpk per day intraperitoneal): basically consistent
